SMILES strings stand for the structures. Screen size: about 1,300 compounds; about 65 (5%) were called active.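 Rule for the calls: active = growth inhibition reaching a set limit at one or more tested doses; inactive = the rest.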 This is one part of the list. Results with a measured potency or affinity are listed apart.

59 compounds from PubChem BioAssay AID638 (SRMLSC, 2007) can be followed below.

A short description of the assay: wild-type E. coli BW25113 antibacterial activity – OD615, dose response (AID 638). Conditions: at 100 µM (top of the series) unless noted. In short, it runs like this: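 Material – E. coli BW25113 wild type · Medium – Kanamycin-supplemented LB broth · Doses – compound dilution series for dose-response · Incubation – 20 h compound exposure, 37 °C · Technique – optical density (absorbance) at 615 nm · Read-out basis – IC50 from 4-parameter logistic, bounds fixed 0–100% · Control set – chloramphenicol at 30 µM final as inhibition control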
Turning to `CC1CCN(S(=O)(=O)c2cccc(C(=O)NCc3cccs3)c2)CC1`, the growth inhibition was inactive: -0.27%.

`COc1cc2ccccc2cc1C(=O)Nc1ccc(S(=O)(=O)Nc2cc(C)on2)cc1`: the growth inhibition is inactive: -7.9%.

In the case of `O=S(=O)(N1CCCCC1)n1c(Cc2ccccc2)nc2ccccc21`, the growth inhibition is inactive: 11.7%.

For the compound `OCCn1c(-c2ccc3c(c2)OCO3)csc1=Nc1ccccc1`, the growth inhibition is inactive: 6.06%.

Take `C=CCn1c(SCC(=O)Nc2nc3ccccc3s2)nnc1-c1ccccc1O`: the growth inhibition is inactive: 10.5%.

As to `CCc1cc(C(=O)COc2ccccc2F)c(O)cc1O`, the growth inhibition is inactive: 16.9%.

With `COC(=O)c1ccc(OC)c(CSc2nnc(COc3ccccc3)o2)c1`, the growth inhibition was inactive: 0.55%.

In the case of `CC(C)C(c1nnnn1C1CCCC1)N1c2ccccc2CC1C` (centres undefined), the growth inhibition is inactive: 7%.

`O=C(COc1cccc(C(F)(F)F)c1)Nc1ccc(S(=O)(=O)N2CCCC2)cc1`: the growth inhibition was inactive: 9.17%.

Regarding `CCN(CC)S(=O)(=O)c1ccc2[nH]cc(C(=O)NCCC3=CCCCC3)c(=O)c2c1`, the growth inhibition was inactive: -6.85%.

Consider `c1ccc(-c2ccccc2-c2nc(-c3cccnc3)no2)cc1`, for which the growth inhibition is inactive: 14.7%.

With `COc1ccc(Cl)cc1N1CCN(CCNC(=O)Nc2ccccc2C)CC1`, the growth inhibition is inactive: -2.62%.

As for `Clc1ccccc1OCc1nnc(-c2ccccc2Br)o1`, the growth inhibition is inactive: 0.99%.

For `CCc1cc(/C(Cc2ccc3ccccc3n2)=N\O)c(O)cc1O`, the growth inhibition was inactive: 17.7% [at 50 µM].

In the case of `Fc1ccc(-n2c(Cc3ccccc3)nnc2SCc2nc(-c3cccs3)no2)cc1`, the growth inhibition is inactive: -13.2%.

Regarding `CCn1cc(C(=O)OC(C)C(=O)Nc2c(C)n(C)n(-c3ccccc3)c2=O)c(=O)c2ccc(C)nc21` (centres undefined), the growth inhibition was inactive: 13%.

As to `N=c1n(Cc2ccccc2)c2ccccc2n1CC(O)COc1ccccc1` (centres undefined), the growth inhibition was inactive: 12.5%.

In the case of `CCn1c2ccccc2c2cc(NC(=O)c3ccco3)ccc21`, the growth inhibition is inactive: -3.49%.

For the compound `CC1CCCc2sc3nc(NCc4ccco4)n4ncnc4c3c21` (centres undefined), the growth inhibition was inactive: -3.17%.

With `COc1ccc(C)cc1NC(=O)CSc1nnc(COc2ccccc2)n1Cc1ccco1`, the growth inhibition was inactive: 0.64%.

For `CCOCCn1c(CN(Cc2ccccc2)Cc2ccccc2)nc2c1c(=O)n(C)c(=O)n2C`, the growth inhibition was inactive: 1.81%.

Consider `O=C(Nc1ccc(C(F)(F)F)cc1Cl)c1ccc(Cn2cc(Br)cn2)o1`, for which the growth inhibition is inactive: 1.95%.

In the case of `CCCOC(=O)c1ccc(Oc2c(-c3ccc(O)cc3O)n[nH]c2C)cc1`, the growth inhibition is inactive: 14.6%.

As to `COc1ccc(Cn2nnnc2C(C(C)C)N2CCc3ccccc32)cc1` (centres undefined), the growth inhibition is inactive: -16.7%.

In the case of `COc1ccc(-c2noc(CCC(=O)N(C)c3cccc(C)c3)n2)cc1`, the growth inhibition was inactive: -3.43%.

On to `Clc1ccc(OCCN2CCN(c3ncnc4sccc34)CC2)cc1`, for which the growth inhibition was inactive: 9.48%.

Consider `COc1ccc(-c2n[nH]c(C(F)(F)F)c2-c2cc3ccccc3o2)c(O)c1`, for which the growth inhibition was inactive: 15.7%.

For the compound `CCOc1ccc(OCCSc2nnnn2C2CCCCC2)cc1`, the growth inhibition was inactive: 2.64%.

As to `c1ccc(Nc2nc(-c3cccs3)cs2)nc1`, the growth inhibition is inactive: 15.6%.

Take `CCCn1c(SCC(=O)Nc2ccccc2N2CCCCC2)nc2c1c(=O)n(C)c(=O)n2C`: the growth inhibition was inactive: -7.06%.

Consider `COc1cc(S(=O)(=O)N2CCC(O)(c3cccc(C(F)(F)F)c3)CC2)ccc1-n1cnnn1`, for which the growth inhibition was inactive: 9.3%.

Turning to `CC(C)(C)n1nnnc1C(c1cccs1)N1CCCc2ccccc21` (centres undefined), the growth inhibition is inactive: 11.6%.

As to `Cc1ccccc1OCCCN1C(=O)C(=O)c2cccc(C)c21`, the growth inhibition was inactive: -2.25%.

As to `Cc1ccc(C)c(SCC(=O)Nc2nnc(-c3ccccc3)o2)c1`, the growth inhibition was inactive: 2.5%.

For `O=C(c1ccc(COc2ccccc2Cl)o1)N1CCN(c2ccccc2)CC1`, the growth inhibition was inactive: -2.07%.

Regarding `CCc1ccc2[nH]c(=O)c(C(c3nnnn3CCOC)N3CCN(c4ccc(F)cc4)CC3)cc2c1` (centres undefined), the growth inhibition is inactive: -0.14%.

For `O=C(CSc1nc2ccccc2[nH]1)Nc1cc(C(F)(F)F)ccc1N1CCOCC1`, the growth inhibition is inactive: 14.2%.

In the case of `O=C(c1cc2nc(-c3ccco3)cc(C(F)(F)F)n2n1)N1CCN(c2ccccc2)CC1`, the growth inhibition is inactive: -5.7%.

For `N#C/C(=C\C1CC=CCC1)c1nc2ccccc2[nH]1` (centres undefined), the growth inhibition was inactive: 5.8%.

For the compound `O=C(Nc1ccc(Cl)c(Cl)c1)N1CCSC1c1ccco1` (centres undefined), the growth inhibition is inactive: 15.6%.

With `COc1ccccc1-c1cc(C(=O)N2CCN(c3ccccc3OC)CC2)no1`, the growth inhibition was inactive: -0.79%.

Take `CCOC(=O)c1c(-c2cccs2)csc1NC(=O)CN1CC(C)OC(C)C1` (centres undefined): the growth inhibition is inactive: -7.6%.

As for `CCOC(=O)Cc1nnc2c(Nc3ccc(Cl)cc3)nc3nonc3n12`, the growth inhibition was inactive: 4.59%.

As to `O=C(NC1CCCC1)c1sc(=S)n2c1[nH]c(=O)c1ccccc12`, the growth inhibition is inactive: -2.92%.

`CC1(C)CC(=O)C=C(NCCN2CCN(C(=O)Nc3ccc(Cl)c(Cl)c3)CC2)C1`: the growth inhibition was inactive: 16.5%.

Consider `N#Cc1nc(Cc2ccccc2)oc1NCc1ccccc1Cl`, for which the growth inhibition was inactive: 14.5%.

`CCN(c1ccccc1)S(=O)(=O)c1ccc(C(=O)Nc2nnc(COC)o2)cc1`: the growth inhibition is inactive: 3.69%.

Regarding `COc1ccccc1N1CCN(C(=O)COc2ccc(C)cc2Br)CC1`, the growth inhibition is inactive: 12.1%.

As for `N#Cc1nc(COc2ccccc2)oc1N1CCN(Cc2ccccc2)CC1`, the growth inhibition was inactive: -11%.

On to `COc1cc(OC)cc(-n2nnnc2SCC(=O)N2CCCc3ccccc32)c1`, for which the growth inhibition was inactive: -0.65%.

Regarding `CCOC(=O)Nc1ccc2c(c1)N(C(=O)N1CCN(C)CC1)c1ccccc1S2`, the growth inhibition was inactive: 11.8%.

For `CC(C)Cn1c(=O)c(C(=O)Nc2ccncc2)c(O)c2ccccc21`, the growth inhibition is inactive: -8.3%.

In the case of `O=C(c1ccc(COc2ccc(Cl)cc2)o1)N1CCN(Cc2ccc3c(c2)OCO3)CC1`, the growth inhibition is inactive: -1.84%.

With `CCc1ccccc1N(CC)C(=O)CCc1nc(-c2ccc(C)cc2)no1`, the growth inhibition is inactive: -1.17%.

In the case of `CCOC(=O)C1CCN(c2nc3cc(OC)ccc3cc2C#N)CC1`, the growth inhibition was inactive: 4.12%.

Regarding `Cc1nc2c(C(=O)NCCC3=CCCCC3)c[nH]n2c(=O)c1Cl`, the growth inhibition was inactive: 5.42%.

For `O=C(Cn1c(C(=O)NCc2ccco2)cc2sccc21)c1ccccc1`, the growth inhibition was inactive: 3.36%.

Turning to `COc1nnc(-c2ccc(N3CCCCC3)c(N)c2)c2ccccc12`, the growth inhibition is inactive: 5.26%.

For the compound `c1ccc(-c2noc(-c3cccc4ccccc34)n2)cc1`, the growth inhibition is inactive: 2.3%.
